Results taken from PubChem BioAssay AID540276 (National Center for Advancing Translational Sciences (NCATS), 2011).
Out of some 300,000 compounds screened, about 5,400 (1.8%) were called active. This list was built around the results that the source calls inconclusive (neither active nor inactive); the mix of calls is not that of the screen. Calls come from the whole dose curve; tested in HEK293 cells. A potency beside an inconclusive call is a rough fit, not a confirmed value.
Potency is the fitted concentration of half-maximal effect.

Assay: qHTS for inhibitors of binding or entry into cells for Marburg Virus
Conditions: Marburg virus pseudotyped entry inhibition, cell reporter; series mostly up to 37.8 µM
For `O=C(Cc1ccc(S(=O)(=O)N2CCCC2)s1)Nc1nc2c(s1)CCCC2`, the Potency was “inactive”. With `Cc1ccc(C(=O)NC2=NCCS2)cc1Cl` the Potency was “inactive”. For `CC(=O)Nc1ccc(S(=O)(=O)NCCC(=O)Nc2ncccc2C)cc1`, the Potency was inconclusive: 35.5 µM [activator, single point]. In the case of `Cc1cc(/C=N/NC(=O)c2cccc(N(C)C)c2)c(C)n1-c1cc(C(=O)O)cc(C(=O)O)c1`, the Potency is reported as “inactive”. In the case of `CCOc1cc(/C=N\NC(=O)Cn2nnc3ccccc32)ccc1O`, the Potency is reported as inconclusive: 3.55 µM [inhibitor, single point]. For `CCc1ccc(N(C(=O)CNC(=O)c2ccco2)C(C(=O)NC2CCCC2)c2cccnc2)cc1` (configuration not stated), the Potency was “inactive”. For `Cc1nn(-c2ccccc2)c2c1[C@@H](c1ccc(F)cc1F)C(C#N)=C(N)O2`, the Potency was “inactive”. For `COc1ccccc1C(=O)Nc1nc2nc(C)c(Cc3ccccc3)c(=O)n2[nH]1`, the Potency was “inactive”. With `CN(C)S(=O)(=O)c1ccc(Cl)c(NC(=O)CN2CCCCCC2)c1` the Potency was “inactive”. In the case of `O=C(CNCc1ccccc1)Nc1ccccc1-c1ccccc1`, the Potency is reported as inconclusive: 5.62 µM [activator, single point]. With `COc1ccc2cc(C(=O)C3CCCN(Cc4cnc(N5CCOCC5)s4)C3)ccc2c1` (configuration not stated) the Potency was inconclusive: 6.31 µM [inhibitor, partial curve, poor fit]. For `O=C(CC(c1ccccc1)c1ccccc1)Nc1ccncc1`, the Potency was inconclusive: 11.2 µM [inhibitor, partial curve, poor fit]. For `O=C(CCNC(=O)c1ccco1)NCc1ccccc1`, the Potency was inconclusive: 2.82 µM [inhibitor, single point]. With `CC1CCN(S(=O)(=O)c2ccc3c(c2)N(CC(=O)N2CCN(c4ccccc4)CC2)C(=O)CO3)CC1` the Potency was inconclusive: 3.16 µM [inhibitor, partial curve, poor fit]. For `O=C(NCCCO)c1ccc2[nH]c3c(c2c1)CCCC3`, the Potency was inconclusive: 14.1 µM [activator, partial curve]. In the case of `O=C(CN1CCCC1)Nc1ccccc1Sc1ccccc1`, the Potency is reported as inconclusive: 11.2 µM [inhibitor, single point]. With `Cn1cc([N+](=O)[O-])c(C(=O)Nc2cc(Oc3cccnc3)cc([N+](=O)[O-])c2)n1` the Potency was “inactive”. For `Cc1nc(N2CCN(Cc3ccccc3)CC2)c(C#N)c2c1COC(C)(C)C2`, the Potency was “inactive”. With `COc1ccc(C2(C)C(C#N)C(=O)NC(=O)C2C#N)cc1` (configuration not stated) the Potency was inconclusive: 0.112 µM [activator, full curve, poor fit]. For `CC(=O)NCCC(=O)Nc1cccc(S(=O)(=O)N(C)c2ccccc2)c1`, the Potency was inconclusive: 3.16 µM [activator, single point]. In the case of `Cc1ccccc1C(=O)NC(=S)NC1CC1`, the Potency is reported as inconclusive: 6.31 µM [inhibitor, single point]. For `COc1ccc2[nH]cc(CCNS(=O)(=O)c3ccccc3)c2c1`, the Potency was inconclusive: 1.58 µM [inhibitor, single point]. For `O=C(CSc1nc2ccccc2n1S(=O)(=O)c1cccc([N+](=O)[O-])c1)NCc1cccs1`, the Potency was inconclusive: 2.51 µM [activator, full curve, poor fit]. With `COc1ccccc1NC(=O)N1CCN(CCc2ccccc2)CC1` the Potency was “inactive”. With `CCC(=O)NC(=S)Nc1cccc(NC(=O)c2ccccc2Cl)c1` the Potency was “inactive”. For `Cn1c(N)c(C(=O)COC(=O)c2cc3ccccc3cc2O)c(=O)n(C)c1=O`, the Potency was inconclusive: 0.794 µM [inhibitor, full curve, poor fit]. In the case of `COc1cc(NC(=S)NC2CC2)c(OC)cc1Cl`, the Potency is reported as “inactive”. For `NCCCCN`, the Potency was “inactive”. In the case of `CCN(CC)CCN1C(=O)C(O)=C(C(=O)c2cc3ccccc3o2)[C@@H]1c1cccnc1`, the Potency is reported as inconclusive: 6.31 µM [activator, full curve, poor fit]. For `COc1ccc(CCNC(=O)COC(=O)Cn2cnc3ccccc32)cc1OC`, the Potency was “inactive”. In the case of `O=c1ccn(Cc2ccccc2)c(SCc2ccccc2)n1`, the Potency is reported as inconclusive: 3.55 µM [activator, full curve, poor fit]. For `Cn1c(O)c(C(=O)c2ccccc2Cl)c(=O)n(C)c1=O`, the Potency was inconclusive: 1.26 µM [inhibitor, partial curve, poor fit]. With `S=C1NC(c2ccccc2)=NCN1c1ccc(Cl)cc1` the Potency was inconclusive: 0.794 µM [activator, full curve]. For `Cc1cc(C)c(C(=O)CSc2n[nH]c(=O)n2C2CC2)cc1C`, the Potency was inconclusive: 15.8 µM [inhibitor, single point]. For `CCOc1cc(N2CCOCC2)c(OCC)cc1NC(=O)Cn1nc(C)c([N+](=O)[O-])c1C`, the Potency was “inactive”. In the case of `Cc1ccc(-c2cc(-c3ccc(F)cc3)n[nH]2)c(O)c1`, the Potency is reported as inconclusive: 17.8 µM [inhibitor, partial curve, poor fit]. For `Cc1cc(CSc2ccccc2)ccc1NC(=O)c1ccc(C)c([N+](=O)[O-])c1`, the Potency was “inactive”. For `COc1ccc(CCNC(=O)C(C)SCc2ccccc2)cc1` (configuration not stated), the Potency was “inactive”. With `Cc1nn(Cc2ccccc2Cl)c(C)c1C(=O)NC1=NCCS1` the Potency was “inactive”. With `CCOC(=O)C1=C(C)N(C)C(=O)NC1c1c(C)nn(-c2ccccc2)c1C` (configuration not stated) the Potency was inconclusive: 22.4 µM [activator, partial curve, poor fit]. With `COc1ccc(CCNC(=O)C/C(C)=N/NC(=O)Cc2cccc3ccccc23)cc1OC` the Potency was inconclusive: 10 µM [activator, partial curve, poor fit]. For `O=C(Cc1cccc2ccccc12)NNC(=O)Nc1ccc(Cl)cc1`, the Potency was inconclusive: 35.5 µM [inhibitor, single point]. For `CC(=O)Nc1ccc(CN(C)CC2CCCN(CCc3cccc(C(F)(F)F)c3)C2)cc1` (configuration not stated), the Potency was active: 10 µM. For `CCCCn1c(=O)c2c(nc3n2CCCN3Cc2ccccc2)n(C)c1=O`, the Potency was “inactive”. For `COCCN(C(=O)CSc1cc(C)c2ccccc2n1)c1c(N)n(CC(C)C)c(=O)[nH]c1=O`, the Potency was inconclusive: 35.5 µM [inhibitor, single point]. For `CCCn1c(=O)[nH]c(=O)c2c1nc(-c1ccc(C(F)(F)F)cc1)n2CCOC`, the Potency was “inactive”. For `CCCc1c(O)nc(SCCN(CC)CC)n(C(=O)c2ccccc2)c1=O`, the Potency was inconclusive: 6.51 µM [inhibitor, single point].
